For 29 substances, isolated yield results are on record in PMC5580309 (Chemical Science, 2015).

Strings that start with PEPTIDE1 are HELM notation: dots part the residues, brackets hold end groups and non-standard residues.

A short description of this series: general procedure: Fmoc solid-phase peptide synthesis. The settings on record: whole synthesis.
“PEPTIDE1{T.Q.[Thr_Mana2Mana].H.Y.G.Q.C.G.G.I.G.Y.S.G.P.T.V.C.A.S.G.T.T.C.Q.V.L.N.P.Y.Y.S.Q.C.L}$PEPTIDE1,PEPTIDE1,8:R3-25:R3|PEPTIDE1,PEPTIDE1,19:R3-35:R3$$$V2.0” came in with an isolated yield of 7%. “PEPTIDE1{T.A.S.H.Y.G.Q.C.G.G.I.G.Y.S.G.P.T.V.C.A.S.G.T.T.C.Q.V.L.N.P.Y.Y.S.Q.C.L}$PEPTIDE1,PEPTIDE1,8:R3-25:R3|PEPTIDE1,PEPTIDE1,19:R3-35:R3$$$V2.0” had an isolated yield of 30%. As to “PEPTIDE1{T.Q.[Ser_Gala].H.Y.G.Q.C.G.G.I.G.Y.S.G.P.T.V.C.A.S.G.T.T.C.Q.V.L.N.P.Y.Y.S.Q.C.L}$PEPTIDE1,PEPTIDE1,8:R3-25:R3|PEPTIDE1,PEPTIDE1,19:R3-35:R3$$$V2.0”, the isolated yield worked out at 13%.

Consider “PEPTIDE1{T.Q.[Ser_Mana6Mana].H.Y.G.Q.C.G.G.I.G.Y.S.G.P.T.V.C.A.S.G.T.T.C.Q.V.L.N.P.Y.Y.S.Q.C.L}$PEPTIDE1,PEPTIDE1,8:R3-25:R3|PEPTIDE1,PEPTIDE1,19:R3-35:R3$$$V2.0”, for which the isolated yield is 22%.

Substance “PEPTIDE1{T.Q.[Thr(Mana)].H.Y.G.Q.C.G.G.I.G.Y.S.G.P.T.V.C.A.S.G.T.T.C.Q.V.L.N.P.Y.Y.S.Q.C.L}$PEPTIDE1,PEPTIDE1,8:R3-25:R3|PEPTIDE1,PEPTIDE1,19:R3-35:R3$$$V2.0” displayed an isolated yield of 16%. For “PEPTIDE1{T.Q.[Cys(Mana)].H.Y.G.Q.C.G.G.I.G.Y.S.G.P.T.V.C.A.S.G.T.T.C.Q.V.L.N.P.Y.Y.S.Q.C.L}$PEPTIDE1,PEPTIDE1,8:R3-25:R3|PEPTIDE1,PEPTIDE1,19:R3-35:R3$$$V2.0” the value was 16%. With “PEPTIDE1{T.Q.[Ser_Man6Pa2Mana].H.Y.G.Q.C.G.G.I.G.Y.S.G.P.T.V.C.A.S.G.T.T.C.Q.V.L.N.P.Y.Y.S.Q.C.L}$PEPTIDE1,PEPTIDE1,8:R3-25:R3|PEPTIDE1,PEPTIDE1,19:R3-35:R3$$$V2.0”, the isolated yield stood at 11%. For “PEPTIDE1{T.Q.S.H.A.G.Q.C.G.G.I.G.Y.S.G.P.T.V.C.A.S.G.T.T.C.Q.V.L.N.P.Y.Y.S.Q.C.L}$PEPTIDE1,PEPTIDE1,8:R3-25:R3|PEPTIDE1,PEPTIDE1,19:R3-35:R3$$$V2.0” the value was 12%; for “PEPTIDE1{A.Q.[Ser(Mana)].H.Y.G.Q.C.G.G.I.G.Y.S.G.P.T.V.C.A.S.G.T.T.C.Q.V.L.N.P.Y.Y.S.Q.C.L}$PEPTIDE1,PEPTIDE1,8:R3-25:R3|PEPTIDE1,PEPTIDE1,19:R3-35:R3$$$V2.0”, 18%.

“PEPTIDE1{T.Q.[Ser_ManNAca].H.Y.G.Q.C.G.G.I.G.Y.S.G.P.T.V.C.A.S.G.T.T.C.Q.V.L.N.P.Y.Y.S.Q.C.L}$PEPTIDE1,PEPTIDE1,8:R3-25:R3|PEPTIDE1,PEPTIDE1,19:R3-35:R3$$$V2.0” gave an isolated yield of 16%. The substance “PEPTIDE1{T.Q.[dS].H.Y.G.Q.C.G.G.I.G.Y.S.G.P.T.V.C.A.S.G.T.T.C.Q.V.L.N.P.Y.Y.S.Q.C.L}$PEPTIDE1,PEPTIDE1,8:R3-25:R3|PEPTIDE1,PEPTIDE1,19:R3-35:R3$$$V2.0” returned an isolated yield of 22%. For “PEPTIDE1{T.Q.[Ser_GlcNAca].H.Y.G.Q.C.G.G.I.G.Y.S.G.P.T.V.C.A.S.G.T.T.C.Q.V.L.N.P.Y.Y.S.Q.C.L}$PEPTIDE1,PEPTIDE1,8:R3-25:R3|PEPTIDE1,PEPTIDE1,19:R3-35:R3$$$V2.0” the value was 18%.

Turning to “PEPTIDE1{T.Q.[Ser_GlcNAcb].H.Y.G.Q.C.G.G.I.G.Y.S.G.P.T.V.C.A.S.G.T.T.C.Q.V.L.N.P.Y.Y.S.Q.C.L}$PEPTIDE1,PEPTIDE1,8:R3-25:R3|PEPTIDE1,PEPTIDE1,19:R3-35:R3$$$V2.0”, the isolated yield is listed as 7%.

The substance “PEPTIDE1{T.Q.[Ser_Glcb].H.Y.G.Q.C.G.G.I.G.Y.S.G.P.T.V.C.A.S.G.T.T.C.Q.V.L.N.P.Y.Y.S.Q.C.L}$PEPTIDE1,PEPTIDE1,8:R3-25:R3|PEPTIDE1,PEPTIDE1,19:R3-35:R3$$$V2.0” gave an isolated yield of 15%. On to “PEPTIDE1{T.Q.T.H.Y.G.Q.C.G.G.I.G.Y.S.G.P.T.V.C.A.S.G.T.T.C.Q.V.L.N.P.Y.Y.S.Q.C.L}$PEPTIDE1,PEPTIDE1,8:R3-25:R3|PEPTIDE1,PEPTIDE1,19:R3-35:R3$$$V2.0”, for which the isolated yield is on record as 23%. In the case of “PEPTIDE1{T.Q.[Ser_GalNAca].H.Y.G.Q.C.G.G.I.G.Y.S.G.P.T.V.C.A.S.G.T.T.C.Q.V.L.N.P.Y.Y.S.Q.C.L}$PEPTIDE1,PEPTIDE1,8:R3-25:R3|PEPTIDE1,PEPTIDE1,19:R3-35:R3$$$V2.0”, the isolated yield turned out to be 20%. For “PEPTIDE1{T.Q.[Ser(Mana)].A.Y.G.Q.C.G.G.I.G.Y.S.G.P.T.V.C.A.S.G.T.T.C.Q.V.L.N.P.Y.Y.S.Q.C.L}$PEPTIDE1,PEPTIDE1,8:R3-25:R3|PEPTIDE1,PEPTIDE1,19:R3-35:R3$$$V2.0” the value was 13%. As for “PEPTIDE1{T.Q.[Ser(Mana)].H.A.G.Q.C.G.G.I.G.Y.S.G.P.T.V.C.A.S.G.T.T.C.Q.V.L.N.P.Y.Y.S.Q.C.L}$PEPTIDE1,PEPTIDE1,8:R3-25:R3|PEPTIDE1,PEPTIDE1,19:R3-35:R3$$$V2.0”, the isolated yield stood at 13%. In the case of “PEPTIDE1{T.Q.S.A.Y.G.Q.C.G.G.I.G.Y.S.G.P.T.V.C.A.S.G.T.T.C.Q.V.L.N.P.Y.Y.S.Q.C.L}$PEPTIDE1,PEPTIDE1,8:R3-25:R3|PEPTIDE1,PEPTIDE1,19:R3-35:R3$$$V2.0”, the isolated yield was found to be 15%.

Take “PEPTIDE1{T.Q.C.H.Y.G.Q.C.G.G.I.G.Y.S.G.P.T.V.C.A.S.G.T.T.C.Q.V.L.N.P.Y.Y.S.Q.C.L}$PEPTIDE1,PEPTIDE1,8:R3-25:R3|PEPTIDE1,PEPTIDE1,19:R3-35:R3$$$V2.0”: the isolated yield is listed as 13%.

Turning to “PEPTIDE1{A.Q.S.H.Y.G.Q.C.G.G.I.G.Y.S.G.P.T.V.C.A.S.G.T.T.C.Q.V.L.N.P.Y.Y.S.Q.C.L}$PEPTIDE1,PEPTIDE1,8:R3-25:R3|PEPTIDE1,PEPTIDE1,19:R3-35:R3$$$V2.0”, the isolated yield was found to be 28%.

For “PEPTIDE1{T.Q.[Ser_Galb].H.Y.G.Q.C.G.G.I.G.Y.S.G.P.T.V.C.A.S.G.T.T.C.Q.V.L.N.P.Y.Y.S.Q.C.L}$PEPTIDE1,PEPTIDE1,8:R3-25:R3|PEPTIDE1,PEPTIDE1,19:R3-35:R3$$$V2.0”, the isolated yield is given as 24%. The substance “PEPTIDE1{T.Q.[Ser_Mana2Mana].H.A.G.Q.C.G.G.I.G.Y.S.G.P.T.V.C.A.S.G.T.T.C.Q.V.L.N.P.Y.Y.S.Q.C.L}$PEPTIDE1,PEPTIDE1,8:R3-25:R3|PEPTIDE1,PEPTIDE1,19:R3-35:R3$$$V2.0” displayed an isolated yield of 6%.

The substance “PEPTIDE1{T.Q.[Ser_Fuca].H.Y.G.Q.C.G.G.I.G.Y.S.G.P.T.V.C.A.S.G.T.T.C.Q.V.L.N.P.Y.Y.S.Q.C.L}$PEPTIDE1,PEPTIDE1,8:R3-25:R3|PEPTIDE1,PEPTIDE1,19:R3-35:R3$$$V2.0” gave an isolated yield of 26%. The substance “PEPTIDE1{T.Q.[Cys_Mana2Mana].H.Y.G.Q.C.G.G.I.G.Y.S.G.P.T.V.C.A.S.G.T.T.C.Q.V.L.N.P.Y.Y.S.Q.C.L}$PEPTIDE1,PEPTIDE1,8:R3-25:R3|PEPTIDE1,PEPTIDE1,19:R3-35:R3$$$V2.0” had an isolated yield of 14%. In turn, “PEPTIDE1{T.Q.[Ser_Glca6Mana].H.Y.G.Q.C.G.G.I.G.Y.S.G.P.T.V.C.A.S.G.T.T.C.Q.V.L.N.P.Y.Y.S.Q.C.L}$PEPTIDE1,PEPTIDE1,8:R3-25:R3|PEPTIDE1,PEPTIDE1,19:R3-35:R3$$$V2.0” yielded an isolated yield of 19%. Regarding “PEPTIDE1{T.A.[Ser(Mana)].H.Y.G.Q.C.G.G.I.G.Y.S.G.P.T.V.C.A.S.G.T.T.C.Q.V.L.N.P.Y.Y.S.Q.C.L}$PEPTIDE1,PEPTIDE1,8:R3-25:R3|PEPTIDE1,PEPTIDE1,19:R3-35:R3$$$V2.0”, the isolated yield is 17%. With “PEPTIDE1{T.Q.[D-Ser(Mana)].H.Y.G.Q.C.G.G.I.G.Y.S.G.P.T.V.C.A.S.G.T.T.C.Q.V.L.N.P.Y.Y.S.Q.C.L}$PEPTIDE1,PEPTIDE1,8:R3-25:R3|PEPTIDE1,PEPTIDE1,19:R3-35:R3$$$V2.0”, the isolated yield is on record as 8%. “PEPTIDE1{T.Q.[Ser(Man6Pa)].H.Y.G.Q.C.G.G.I.G.Y.S.G.P.T.V.C.A.S.G.T.T.C.Q.V.L.N.P.Y.Y.S.Q.C.L}$PEPTIDE1,PEPTIDE1,8:R3-25:R3|PEPTIDE1,PEPTIDE1,19:R3-35:R3$$$V2.0” showed an isolated yield of 6% for 20%.
